In PubChem BioAssay AID493014 (National Center for Advancing Translational Sciences (NCATS), 2011):
The other results are listed elsewhere or left out. Shown are side measurements of this screen, not its main read-out; they come without a call. Compounds called inactive in the main read-out are mostly missing here. Potencies come from curve fits of mixed quality, noted in brackets.

Test: qHTS Assay to Find Inhibitors of Chronic Active B-Cell Receptor Signaling
Details: ABC-DLBCL IkBa-CBG/CBR reporter, luminescence ratio (green luciferase fused to IkBa over red control in TMD8 lymphoma cells), 4 h
Method in brief: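 Concentration-response series (up to 46 uM) were applied to TMD8 dual-reporter cells for 4 h at 37C with doxycycline. Green/red ratio, after filter-overlap correction, defined %Activity; red signal alone was normalised to basal cells and zero luminescence.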

[1] = measured here: CBR red luminescence, cell number
[2] = measured here: IkBa-CBG green luminescence

Compound | AC50 [1] | AC50 [2]
CC(O)CN=c1cc(-c2ccccc2)oc2ccc(Cl)cc12 (stereo not given) | 0.355 µM [rising, full curve, poor fit] | 
COc1ccc(CNC(=O)c2cc(-c3ccccc3O)n[nH]2)cc1 | 0.92 µM [falling, full curve] | 
CCCCOc1ccc(C(=O)NNC(=O)C2C3CCC(C3)C2C(=O)O)cc1 (stereo not given) | 1.41 µM [falling, full curve] | 
CC1CCCCN1C(=O)c1ccc(OC2CCN(S(=O)(=O)N(C)C)CC2)cc1 (stereo not given) | 12.6 µM [rising, partial curve] | 
O=C(CN1CCC(Cc2ccccc2)CC1)Nc1ccc2c(c1)OCCO2 | 20.6 µM [falling, single point] | 
CC1CCCN(c2ccc(C(=O)Nc3cccnc3)cc2[N+](=O)[O-])C1 (stereo not given) | 7.08 µM [rising, partial curve, poor fit] | 
O=C(CSC1=NCCN1)Nc1ccccc1[N+](=O)[O-] | 11.2 µM [falling, partial curve, poor fit] | 
O=C(CCCN1C(=O)C(c2ccccc2)Oc2cccnc21)Nc1ccccc1Cl (stereo not given) | 10 µM [falling, partial curve, poor fit] | 
COCCCNC(=S)N1CCN(c2nc(-c3cccc(OC)c3)cs2)CC1 | 35.5 µM [falling, single point] | 
O=C(Nc1c2c(nn1-c1ccc(F)cc1)CS(=O)(=O)C2)c1ccc(Br)o1 | 12.6 µM [falling, single point] | 
CCOc1ccccc1/C=C(\C#N)C(=O)Nc1cccc(C(=O)O)c1 | 11.2 µM [falling, single point] | 
COc1cccc(NC(=S)N2CCc3cc(OC)c(OC)cc3C2COc2ccc3c(C)cc(=O)oc3c2)c1 (stereo not given) | 32.6 µM [rising, single point] | 
Cc1nc(NC(=O)c2ccccc2)sc1C1(C)CC(c2ccccc2F)=NO1 (stereo not given) | 35.5 µM [falling, single point] | 
Fc1ccc(-n2cc(CNCCc3ccccn3)c(-c3ccccc3Cl)n2)cc1 | 11.2 µM [falling, partial curve, poor fit] | 
CN(C)CCCN(C(=O)CCc1ccccc1)c1nc2ccc(F)cc2s1 | 16.4 µM [falling, partial curve, poor fit] | 
O=C(NC(=S)Nc1ccc(-c2ccc(CO)o2)cc1)c1cccs1 | 35.5 µM [falling, single point] | 
Cc1cccc(Cn2c(CN3CCC(C(=O)NC(C)C)CC3)cc3ccccc32)c1 | 2.82 µM [falling, partial curve, poor fit] | 
COC(=O)C(C(=O)OC)C(C)C(C(=O)OC)C(=O)OC | 5.8 µM [rising, partial curve, poor fit] | 
COc1ccccc1NC(=O)CSc1nnc(-c2ccoc2C)n1CCc1ccccc1 | 11.2 µM [falling, single point] | 
C[C@@H]1CN([C@H](C)CO)C(=O)c2cccc(NC(=O)Nc3ccc(C(F)(F)F)cc3)c2O[C@H]1CN(C)S(=O)(=O)c1cccs1 | 29.1 µM [falling, single point] | 
O=C(Nc1ccccc1Cl)c1ccc(-c2ccccn2)s1 | 17.8 µM [falling, partial curve, poor fit] | 

Quoted at random: four compounds from above.
Compound | AC50 [1] | AC50 [2]
CC1CCCCN1C(=O)c1ccc(OC2CCN(S(=O)(=O)N(C)C)CC2)cc1 (stereo not given) | 12.6 µM [rising, partial curve] | 
O=C(CN1CCC(Cc2ccccc2)CC1)Nc1ccc2c(c1)OCCO2 | 20.6 µM [falling, single point] | 
Cc1nc(NC(=O)c2ccccc2)sc1C1(C)CC(c2ccccc2F)=NO1 (stereo not given) | 35.5 µM [falling, single point] | 
C[C@@H]1CN([C@H](C)CO)C(=O)c2cccc(NC(=O)Nc3ccc(C(F)(F)F)cc3)c2O[C@H]1CN(C)S(=O)(=O)c1cccs1 | 29.1 µM [falling, single point] | 

Following part.

Compound | AC50 [1] | AC50 [2]
O=C(/C=C/c1cccc2ccccc12)c1ccncc1 | 29.1 µM [rising, single point] | 29.1 µM [falling, single point]
Cc1ccccc1OCC(=O)NNC(=O)Nc1ccc(Cl)cc1 | 3.55 µM [rising, full curve, poor fit] | 
O=C1C=C(c2cccc(O)c2)C[C@@H](c2ccc(F)cc2)C1 |  | 32.6 µM [rising, partial curve, poor fit]
Cc1cc(C)c2cc(CN(Cc3ccc4c(c3)OCO4)Cc3nnnn3Cc3ccco3)c(=O)[nH]c2c1 | 23.1 µM [falling, single point] | 
O=C(CC1C(=O)NCCN1C(=O)Nc1ccccc1)Nc1ccc(F)cc1 (stereo not given) | 1.12 µM [falling, full curve] | 
COc1ccccc1C(=O)N/C(=C/c1ccco1)C(=O)Nc1cccc(C(=O)O)c1 | 3.55 µM [falling, full curve] | 
O=C(C1=C(O)C(=O)N(CCCN2CCOCC2)C1c1ccncc1)c1cc2ccccc2o1 (stereo not given) | 18.4 µM [falling, partial curve, poor fit] | 
c1ccc2c(Cn3nnc4ccccc43)cccc2c1 | 4.11 µM [rising, full curve, poor fit] | 
CCN(CC)S(=O)(=O)c1ccc(/C=C/C(=O)Nc2ccc(F)c(F)c2F)cc1 | 10.3 µM [falling, partial curve] | 
COc1cc(/C=N/Nc2ccc([N+](=O)[O-])cc2S(=O)(=O)N2CCOCC2)cc(OC)c1OC | 23.1 µM [rising, single point] | 
CCCN1CCC(NC(=O)Nc2ccc(Br)cc2)CC1 | 12.6 µM [rising, partial curve] | 
O=C(CCSCc1ccccc1F)N1CCN(c2ccccn2)CC1 | 29.1 µM [rising, single point] | 
CC[n+]1ccc(/C=C2\Sc3ccccc3N2CCCS(=O)(=O)[O-])c2ccccc21 | 35.5 µM [rising, partial curve, poor fit] | 
O=C(Nc1ccc(Br)cc1)Nn1cnnc1 | 3.55 µM [rising, partial curve, poor fit] | 
CN(C)CCOC(=O)C1(c2ccccc2)CCCC1 | 7.31 µM [rising, partial curve, poor fit] | 
O=C(CSc1ccc(-c2ccccc2)nn1)Nc1ccc2c(c1)OCCO2 | 3.66 µM [rising, partial curve, poor fit] | 
Cc1cccc(OCCNC(=O)c2cncc(Br)c2)c1 | 20.6 µM [rising, partial curve, poor fit] | 
Cc1cc(=O)oc2cc(OC(C)C(=O)Nc3nccs3)ccc12 (stereo not given) | 9.2 µM [falling, partial curve] | 
Cc1ccc(NN2C(=O)C=C(c3ccc(Cl)cc3)C2=O)cc1 | 23.1 µM [rising, partial curve] | 18.4 µM [falling, single point]
O=C(Nc1ccncc1)c1c(F)cccc1F | 29.1 µM [falling, single point] | 
COc1ccc(S(=O)(=O)CCC(=O)NCCc2ccc(C)cc2)cc1 | 0.259 µM [falling, full curve, poor fit] | 

Compound | AC50 [1] | AC50 [2]
CSc1nc2ccc(NC(=O)c3ccc(F)c(F)c3)cc2s1 | 0.708 µM [rising, full curve] | 
CC(=O)Nc1ccc(N=c2cc([N+](=O)[O-])cc(Cl)n2O)cc1 | 1.41 µM [rising, full curve, poor fit] | 
N#CC1=C(S)N(c2ccccc2)C(c2ccc(-c3cccc(Cl)c3)o2)NC1=O (stereo not given) |  | 16.4 µM [falling, partial curve, poor fit]
COc1cccc(NC(=O)Cn2c(SCC(=O)N3CCOCC3)nc3ccccc32)c1 | 29.1 µM [rising, single point] | 
CCc1noc(C)c1C(=O)OCC(=O)Nc1ccccc1SC | 7.31 µM [falling, partial curve, poor fit] | 
CCCc1nnc(SCC(=O)Nc2ccc3c(c2)OCCO3)n1CCOC | 3.16 µM [rising, single point] | 
C[C@]12c3[nH]c4ccc(Cl)cc4c3CCN1C(=O)[C@@H](CC(=O)NCC13CC4CC(CC(C4)C1)C3)C[C@@H]2C(=O)N1CCCCC1 | 1.84 µM [rising, partial curve] | 
Cc1ccc(S(=O)(=O)c2nc(S(C)(=O)=O)sc2N2CCC(C)CC2)cc1 | 4.47 µM [rising, partial curve, poor fit] | 
O=C(C1CC(=O)N(c2ccc(F)cc2)C1)N1CCCCC1 (stereo not given) | 11.2 µM [rising, partial curve, poor fit] | 
Cc1cccc(-c2nc(=S)c3c(n2Cc2ccco2)CCCC3)c1 | 16.4 µM [falling, single point] | 
O=C(NNC(=O)[C@@H]1CCCC[C@@H]1C(=O)O)c1cccs1 | 9.2 µM [falling, partial curve, poor fit] | 
Cc1cccc2sc(NC(=O)CNS(=O)(=O)c3ccc(Br)s3)nc12 | 8.91 µM [falling, partial curve, poor fit] | 11.2 µM [rising, partial curve, poor fit]
CCCCC(=O)NC(=S)Nc1c(C)cc(Br)cc1C | 0.731 µM [rising, full curve, poor fit] | 
c1ccc(Nc2ccc3c4c(cccc24)CC3)cc1 | 13 µM [rising, partial curve] | 
CC(=O)Nc1ccc(C(=O)OCc2ccc(F)cc2Cl)cc1 | 11.2 µM [rising, partial curve, poor fit] | 
CCn1c(C)nc2cc(C(=O)NNC(=S)Nc3ccc(C)cc3)ccc21 | 10 µM [rising, partial curve, poor fit] | 
Cc1[nH]n(-c2ccccc2)c(=O)c1N=Nc1c(O)cc(S(=O)(=O)N(C)C)c2ccccc12 | 2.06 µM [falling, full curve] | 
Cc1ccnc(Sc2ccc([N+](=O)[O-])cc2[N+](=O)[O-])n1 | 2.31 µM [falling, partial curve] | 14.6 µM [rising, partial curve, poor fit]
O=C(NN1C(=O)c2cc(Br)ccc2NC1c1cc(Br)cc(Br)c1O)c1ccncc1 (stereo not given) | 6.51 µM [falling, partial curve, poor fit] | 
